PubChem BioAssay AID651768 (National Center for Advancing Translational Sciences (NCATS), 2012)
In all, about 360,000 compounds went through this assay and about 1,700 (0.47%) were called active. The shares of active, inactive and inconclusive entries below differ from those in the screen. The call rests on the fitted dose curve; in most records, active means well fitted inhibition curve with a large enough effect; inconclusive means small, poorly fitted or top-dose-only effect; inactive means no such curve, though single readings can be large or run the other way. Potencies beside an inconclusive call are fits to weak or partial responses and may not hold up.
Further: nearly all actives have a fitted effect of over 55% in size.
On the % scale 0 is the no-effect control and ±100 the full control effect; potency means the concentration at half of the fitted maximal effect.

The chains behind the UniProt entries cited, without tags or fusion partners.
UniProt Q14191, whole entry, looked up: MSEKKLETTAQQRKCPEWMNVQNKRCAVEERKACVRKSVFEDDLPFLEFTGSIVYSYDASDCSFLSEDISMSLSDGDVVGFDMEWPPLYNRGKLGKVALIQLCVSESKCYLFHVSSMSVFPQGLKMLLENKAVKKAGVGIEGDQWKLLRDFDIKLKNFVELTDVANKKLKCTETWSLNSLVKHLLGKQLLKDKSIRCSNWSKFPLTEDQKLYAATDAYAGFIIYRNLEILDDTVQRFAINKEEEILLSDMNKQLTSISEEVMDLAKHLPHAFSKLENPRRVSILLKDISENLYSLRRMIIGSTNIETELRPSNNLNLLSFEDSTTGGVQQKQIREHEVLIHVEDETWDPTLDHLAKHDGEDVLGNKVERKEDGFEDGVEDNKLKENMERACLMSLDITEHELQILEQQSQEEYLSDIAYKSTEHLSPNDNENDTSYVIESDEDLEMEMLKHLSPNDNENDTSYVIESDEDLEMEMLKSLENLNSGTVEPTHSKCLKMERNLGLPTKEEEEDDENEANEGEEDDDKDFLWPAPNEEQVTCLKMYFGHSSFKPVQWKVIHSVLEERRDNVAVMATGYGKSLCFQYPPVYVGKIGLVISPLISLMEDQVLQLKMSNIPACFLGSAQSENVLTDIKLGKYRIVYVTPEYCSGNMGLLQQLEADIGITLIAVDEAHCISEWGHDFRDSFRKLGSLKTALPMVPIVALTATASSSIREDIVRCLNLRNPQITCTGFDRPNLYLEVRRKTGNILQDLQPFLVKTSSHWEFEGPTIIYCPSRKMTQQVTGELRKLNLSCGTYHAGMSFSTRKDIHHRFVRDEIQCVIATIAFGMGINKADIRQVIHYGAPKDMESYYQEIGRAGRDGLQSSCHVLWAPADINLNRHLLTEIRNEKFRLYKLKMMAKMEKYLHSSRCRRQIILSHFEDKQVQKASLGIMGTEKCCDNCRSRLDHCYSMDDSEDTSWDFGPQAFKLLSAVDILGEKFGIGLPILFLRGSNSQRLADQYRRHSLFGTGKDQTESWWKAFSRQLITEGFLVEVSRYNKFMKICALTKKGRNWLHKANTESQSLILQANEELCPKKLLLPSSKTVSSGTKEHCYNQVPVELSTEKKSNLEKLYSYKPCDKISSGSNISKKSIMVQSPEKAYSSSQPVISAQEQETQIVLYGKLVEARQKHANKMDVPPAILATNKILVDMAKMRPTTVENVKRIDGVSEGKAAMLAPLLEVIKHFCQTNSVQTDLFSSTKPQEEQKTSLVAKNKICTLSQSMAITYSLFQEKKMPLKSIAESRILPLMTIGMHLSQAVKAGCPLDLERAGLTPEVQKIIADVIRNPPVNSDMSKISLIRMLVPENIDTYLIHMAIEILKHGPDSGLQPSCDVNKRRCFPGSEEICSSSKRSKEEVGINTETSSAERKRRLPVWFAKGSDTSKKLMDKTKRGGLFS

These compounds were tested against Bifunctional 3'-5' exonuclease/ATP-dependent helicase WRN (Homo sapiens) (UniProt Q14191) (assay: qHTS for Inhibitors of WRN Helicase). Conditions: WRN helicase unwinding, fluorescent forked duplex, kinetic; activity change, negative = inhibition: at 114 µM (top of the series) unless noted.
Summary of the method: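 Enzyme (20 nM final) and test compound sit together 15 min at room temperature before substrate addition. Substrate is a single-forked duplex oligonucleotide (100 nM) labelled with fluorophore and quencher, with 2 mM ATP; helicase unwinding raises red fluorescence, read kinetically.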
With `O=C(Cc1cccs1)N/N=C/C=C/c1ccco1` the Potency was inconclusive: 56.2 µM [inhibitor, partial curve, poor fit]. For `CCN1C(=O)[C@H]2[C@H]3CN=C(SCc4ccc(C)cc4)N3[C@@](Cc3ccccc3)(C(=O)OC)[C@H]2C1=O`, the “activity change, negative = inhibition” value was inactive: -5.09%. With `CC1(CCCN2C(=O)c3ccccc3C2=O)OCCO1` the “activity change, negative = inhibition” value was inactive: 0.643%. For `CC(C)(C)Cc1nnc(NC(=O)c2ccc3c(c2)OCO3)s1`, the Potency was inconclusive: 89.1 µM [inhibitor, single point]. In the case of `COc1ccc(S(=O)(=O)N2CCOCC2)cc1NC(=O)/C=C/c1ccccc1`, the “activity change, negative = inhibition” value is reported as inactive: 2.37%. `CC(C)CSc1nnc2c3ccccc3n(C)c2n1` was tested, and the Potency was inconclusive: 79.4 µM [inhibitor, single point]. For `COC(=O)c1c(NC(=O)C2CC=CCC2C(=O)O)sc(C(N)=O)c1C` (configuration not stated), the Potency was inconclusive: 16.8 µM [inhibitor, partial curve]. `Cc1ccc(-c2n[nH]c(=S)n2/N=C/C=C/c2ccccc2[N+](=O)[O-])cc1` was tested, and the Potency was inconclusive: 39.8 µM [inhibitor, partial curve]. For `COc1cccc(C2=NN(C(=O)c3ccco3)C(c3ccco3)C2)c1` (configuration not stated), the “activity change, negative = inhibition” value was inactive: -10.3%. In the case of `CSc1cccc(NC(=O)CN(c2ccccc2)S(=O)(=O)N(C)C)c1`, the “activity change, negative = inhibition” value is reported as inactive: -18.2%. With `O=C(CSc1nnc2c3ccccc3c3ccccc3c2n1)Nc1ccccc1F` the Potency was inconclusive: 28.2 µM [inhibitor, full curve]. For `CNC(=O)c1nnsc1S(=O)c1ccc(Cl)cc1` (configuration not stated), the Potency was active: 28.2 µM. For `Cc1cccc(NC(=S)N=Nc2c(O)[nH]c3ccccc23)c1`, the Potency was inconclusive: 35.5 µM [inhibitor, partial curve]. In the case of `O=Cc1cc(N=Nc2ccc(S(=O)(=O)O)cc2)ccc1O`, the Potency is reported as inconclusive: 20 µM [inhibitor, full curve]. For `COc1cccc(NC(=O)C2CCN(S(=O)(=O)c3ccc4c(c3)NC(=O)CO4)CC2)c1`, the “activity change, negative = inhibition” value was inactive: 3.44%. For `CCOc1cc(/C=C2\N=C(SC)SC2=O)cc([N+](=O)[O-])c1OC(C)=O`, the Potency was inconclusive: 50.1 µM [inhibitor, partial curve]. With `O=S(=O)(NC1CCc2ccccc21)c1ccccc1` (configuration not stated) the “activity change, negative = inhibition” value was inactive: 3.29%. For `O=S(=O)(c1ccccc1)C(/C=N\O)/C=C/c1ccccc1` (configuration not stated), the Potency was inconclusive: 44.7 µM [inhibitor, partial curve]. `c1ccc(Cc2nnc3sc(-c4ccco4)nn23)cc1` was tested, and the Potency was inconclusive: 70.8 µM [inhibitor, single point]. In the case of `Cc1cc(=O)[nH]c2sc(C(=O)N3c4ccccc4CC3C)c(N)c12` (configuration not stated), the Potency is reported as inconclusive: 22.4 µM [inhibitor, full curve, poor fit]. For `Oc1ccc(Nc2nc(N3CCCC3)c3ccccc3n2)cc1`, the Potency was inconclusive: 20 µM [inhibitor, single point]. `N#Cc1cc2c(nc1SCC(=O)N1CCCCC1)CCCC2` was tested, and the “activity change, negative = inhibition” value was inactive: 3.5%. With `O=c1c2ccccc2nc2n1CC/C2=C/N1CCN(c2cccc(C(F)(F)F)c2)CC1` the activity change, negative = inhibition was inconclusive: -39.3% [inhibitor] [at 57.1 µM]. With `CC1CC1C(=O)OCC(=O)Nc1ncc(Cl)cc1Cl` (configuration not stated) the Potency was inconclusive: 50.1 µM [inhibitor, partial curve]. With `Cc1ccccc1CN1C(=O)CN(S(C)(=O)=O)CC1(C)C(=O)NC(C)C` (configuration not stated) the “activity change, negative = inhibition” value was inactive: 3.12%. In the case of `Cc1ccc(NC(=O)c2cc(S(=O)(=O)N3CCCCC3)ccc2N2CCOCC2)cc1S(=O)(=O)N(C)C`, the “activity change, negative = inhibition” value is reported as inactive: -3.97%. For `CCN1/C(=C2\C(=O)N(C)C(=S)N2C)C=Cc2ccccc21`, the “activity change, negative = inhibition” value was inactive: -1.31% [at 57.1 µM]. With `COc1cc(CC(=O)N2c3ccccc3N=C(c3ccccc3)C2C(=O)NCc2ccccc2)cc(OC)c1` (configuration not stated) the “activity change, negative = inhibition” value was inactive: -13.2%. With `CC(C)CC1NC(=S)N(C2CCCCC2)C1=O` (configuration not stated) the Potency was inconclusive: 100 µM [inhibitor, single point]. `CCCCCCCCCCS(=O)(=O)N/N=C/c1ccccc1OC` was tested, and the Potency was inconclusive: 31.6 µM [inhibitor, single point]. For `O=c1c2c3c(sc2[nH]c(=S)n1Cc1ccco1)CCC3`, the Potency was inconclusive: 28.2 µM [inhibitor, partial curve]. In the case of `CCOC(=O)[C@]12CCC=C1N(Cc1ccco1)C(=O)[C@H](CC(=O)N1CCCCC1)C2`, the “activity change, negative = inhibition” value is reported as inactive: 0.337%. `CCN(c1ccccc1)S(=O)(=O)c1cc(C(=O)Nc2ccc(F)c(F)c2)ccc1F` was tested, and the Potency was inconclusive: 31.6 µM [inhibitor, single point]. In the case of `O=C(Nc1nccs1)c1ccc(-c2ccc([N+](=O)[O-])cc2)o1`, the Potency is reported as inconclusive: 28.2 µM [inhibitor, single point]. In the case of `CC1=CC2=NC(=O)/C(=C\c3cccn3CCOc3ccccc3C)C(=N)N2O1`, the “activity change, negative = inhibition” value is reported as inactive: -9.09%. `CN(C)S(=O)(=O)N(CC(=O)NCCSCc1ccccc1)c1ccccc1` was tested, and the activity change, negative = inhibition was inactive: -11.9% [at 11.6 µM]. `COc1ccc(N2CCN(C(=O)Cc3ccc(OC)c(OC)c3)CC2)cc1` was tested, and the Potency was inconclusive: 79.4 µM [inhibitor, single point]. `COc1ccc(NC(=O)C(C)N2C(=O)c3ccccc3C2=O)cc1S(=O)(=O)N1CCOCC1` (configuration not stated) was tested, and the “activity change, negative = inhibition” value was inactive: -8.32%. `Cc1cc(/C=C2\SC(=S)NC2=O)c(C)n1C` was tested, and the Potency was inconclusive: 13.4 µM [inhibitor, partial curve]. `O=C1COc2ccc(C(=O)COC(=O)c3ccccc3F)cc2N1` was tested, and the Potency was inconclusive: 20 µM [inhibitor, full curve]. For `Cc1ccc(C)c(NC(=S)c2nc3ccccc3s2)c1`, the “activity change, negative = inhibition” value was inactive: -3%. For `O=C(Nc1ccc(Cl)cc1)Nc1cc([N+](=O)[O-])ccc1F`, the “activity change, negative = inhibition” value was inactive: 6.22%. `Cc1ccc(C)c(OCC(=O)Nc2cccc(S(=O)(=O)NC3=NCCCCC3)c2)c1` was tested, and the Potency was inconclusive: 70.8 µM [inhibitor, single point]. `Cc1ccc(C(=O)NC(C#N)=C(Cl)Cl)cc1` was tested, and the Potency was inconclusive: 39.8 µM [inhibitor, single point]. In the case of `CCCCOc1cccc(C(=O)N(Cc2ccccc2)C2CCS(=O)(=O)C2)c1` (configuration not stated), the Potency is reported as inconclusive: 22.4 µM [inhibitor, single point]. `COc1cc(NS(=O)(=O)c2ccc(NC(=S)NC(=O)/C=C/c3ccco3)cc2)ncn1` was tested, and the Potency was active: 14.1 µM. `O=C1/C(=C\c2cccc(O)c2)SC(=S)N1Cc1ccccc1` was tested, and the “activity change, negative = inhibition” value was inactive: -7.89%. In the case of `Cc1ccnc(NC(=O)COC(=O)c2ccc(F)cc2F)n1`, the “activity change, negative = inhibition” value is reported as inactive: -21.4%. `O=C1C=C(Nc2ccccc2O)c2ccccc2C1=O` was tested, and the Potency was inconclusive: 56.2 µM [inhibitor, partial curve]. In the case of `Cc1ccc(OCC(=O)Nc2nnc(S(=O)(=O)N3CCCCC3)s2)cc1`, the Potency is reported as inconclusive: 56.2 µM [inhibitor, partial curve]. `COc1cccc(NC(=S)Nc2ccc(F)cc2)c1` was tested, and the “activity change, negative = inhibition” value was inactive: 21.4%. `COc1ccc(N(CC(=O)NCCSCc2ccco2)S(=O)(=O)c2ccccc2)cc1OC` was tested, and the Potency was inconclusive: 89.1 µM [inhibitor, single point]. In the case of `Oc1ccc(CNc2ccc(F)cc2)c2cccnc12`, the Potency is reported as inconclusive: 89.1 µM [inhibitor, single point]. For `COc1ccc(/C=N/NC(=O)C(=O)N2CCCC2)cc1`, the Potency was inconclusive: 22.4 µM [inhibitor, single point]. With `C/C(=N/NC(=O)CNC(=O)c1ccc2c(c1)OCO2)c1ccc2c(c1)CCCC2` the “activity change, negative = inhibition” value was inactive: -1.76%. With `CCN(CC)C(=O)c1cccc(NC(=O)CCc2nc3sc4c(c3c(=O)[nH]2)CCCC4)c1` the Potency was inconclusive: 39.8 µM [inhibitor, partial curve]. In the case of `CN(C)c1ccc(/C=C(/NC(=O)c2ccccc2)C(=O)NCCN2CCOCC2)cc1`, the “activity change, negative = inhibition” value is reported as inactive: -8.48%. `COc1ccc(C(=O)OCC(=O)NC2CC2)cc1S(=O)(=O)Nc1ccc(C)cc1` was tested, and the Potency was inconclusive: 14.1 µM [inhibitor, single point]. For `O=C1NN(c2ccc(F)c(Cl)c2)C(=O)/C1=C\c1cccc(OC(=O)c2cccs2)c1`, the Potency was active: 50.1 µM. For `O=C(Nc1ccc2oc(=O)ccc2c1)c1ccc(-c2cccc([N+](=O)[O-])c2)o1`, the Potency was active: 10 µM. `COc1ccc(-c2noc(=O)n2Cc2ccc(C#N)cc2)cc1` was tested, and the Potency was inconclusive: 10 µM [inhibitor, full curve]. `Cc1ccc(S(=O)(=O)/N=C2/C=C(C3C(=O)CC(C)(C)CC3=O)C(=O)c3ccccc32)cc1` was tested, and the Potency was active: 16.8 µM. In the case of `CC(C)CCNC(=O)c1c[nH]c2ccc(S(=O)(=O)N3CCC4(CC3)OCCO4)cc2c1=O`, the “activity change, negative = inhibition” value is reported as inactive: -14.4%. `Cc1cccc(-n2c(=S)[nH]c3sc4c(c3c2=O)CCc2ccccc2-4)c1` was tested, and the Potency was inconclusive: 31.6 µM [inhibitor, partial curve]. In the case of `COc1cccc(Cn2cc(/C=N/NC(=O)c3cc(O)cc(O)c3)c3ccccc32)c1`, the Potency is reported as inconclusive: 50.1 µM [inhibitor, partial curve]. For `CC(C)c1ccc(OCC(=O)NC(Cc2c[nH]c3ccccc23)C(=O)O)cc1` (configuration not stated), the “activity change, negative = inhibition” value was inactive: -2.33%. In the case of `N#CC1=C(N)N(c2ccccc2)C2=C(C(=O)CCC2)C1c1ccsc1` (configuration not stated), the Potency is reported as inconclusive: 56.2 µM [inhibitor, partial curve]. In the case of `COc1cc(OC)cc(C(=O)Nc2nnc(NC(=S)Nc3ccccc3)s2)c1`, the Potency is reported as inconclusive: 25.1 µM [inhibitor, single point]. For `CC1(OC(=O)c2ccc(Cl)nc2)C(=O)C=C2C=C3CCCN3C=C2C1=O` (configuration not stated), the Potency was inconclusive: 50.1 µM [inhibitor, partial curve]. For `O=C(O)/C=C/C(=O)c1ccc2c(c1)NC(=O)CO2`, the Potency was inconclusive: 50.1 µM [inhibitor, partial curve]. With `CCn1c2ccccc2c2cc(NC(=O)COc3ccccc3OC)ccc21` the Potency was inconclusive: 10 µM [inhibitor, partial curve]. For `CCOCCCNC(=O)C(NC(=O)c1ccccc1O)c1ccc(C)cc1` (configuration not stated), the Potency was inconclusive: 70.8 µM [inhibitor, single point].
